{"source": "PubChem BioAssay AID504648", "about": "(National Center for Advancing Translational Sciences (NCATS), 2011)", "note": "The campaign covered roughly 390,000 compounds. About 610 (0.16%) were called active. This list was built around the results that the source calls inconclusive (neither active nor inactive); the mix of calls is not that of the screen. Calls follow the shape of the dose curve; as a rule, active = well fitted inhibition curve with a large enough effect; inconclusive = small, poorly fitted or top-dose-only effect, or effect the other way, or another doubt; inactive = no such curve, though single readings can be large or run the other way. A potency beside an inconclusive call is a rough fit, not a confirmed value. % is scaled to controls: 0 for no effect and ±100 for the full control effect; potency is read from the fitted curve at half-maximal effect.", "data": [{"experiment": "Nrf2 qHTS screen for inhibitors: counterscreen for cytotoxicity", "settings": "A549 ARE-Fluc cells, CellTiter-Fluor viability, 18-24 h; activity change, negative = cytotoxicity: at 46 µM (top of the series)", "method_in_brief": "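Cytotoxicity counterscreen: CellTiter-Fluor fluorescence was measured in A549 ARE_Fluc cells after 18-24 h of compound exposure in a concentration series. The subsequent BugLite luminescent read reports ARE-luciferase activity.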", "values": [{"compound": "CCN1CCN(c2cc(C)c3cc(NC(=O)c4ccc(Br)o4)ccc3n2)CC1", "Potency": "inconclusive: 32.6 µM [falling, partial curve, poor fit]"}, {"compound": "COc1cccc(N2CC(NC(=O)COc3ccc4ccccc4c3)CC2=O)c1", "note": "(stereo unspecified)", "Potency": "inactive"}, {"compound": "N/C(Cc1ccc(Cl)cc1)=N\\OC(=O)c1cccc2ccccc12", "Potency": "inconclusive: 29.1 µM [falling, single point]"}, {"compound": "CCCOC(=O)N1CCN(/[N+]([O-])=N/Oc2ccc([N+](=O)[O-])cc2[N+](=O)[O-])CC1", "Potency": "inconclusive: 16.4 µM [falling, partial curve, poor fit]"}, {"compound": "[N-]=[N+]=CC(=O)C(Cc1ccccc1)N1C(=O)c2ccccc2C1=O", "note": "(stereo unspecified)", "Potency": "inconclusive: 20.6 µM [falling, single point]"}, {"compound": "Cc1cc(S(=O)(=O)N2CCC3(CC2)OCCO3)c(C)cc1Cl", "Potency": "inconclusive: 20.6 µM [activator, partial curve, poor fit]"}, {"compound": "CC(=O)c1ccc(NC(=O)CCn2nc(C)c(S(=O)(=O)N3CCC(C)CC3)c2C)cc1", "Potency": "inactive"}, {"compound": "Cc1cc2c3c(c1C)C1(C(=O)N3C(C)(C)CC2C)C(C#N)=C(N)Oc2cc(O)ccc21", "note": "(stereo unspecified)", "Potency": "inconclusive: 25.9 µM [falling, single point]"}, {"compound": "COc1cc(/C=C/C(=O)c2ccc3c(c2)OCCO3)cc(Br)c1OCC(=O)N(C)C", "Potency": "inconclusive: 29.1 µM [falling, single point]"}, {"compound": "COc1ccccc1C(=O)Nc1ccc(-c2nc3ccccc3s2)c(C)c1", "Potency": "inactive"}, {"compound": "CNc1nc(NCc2ccccc2)c2ccccc2n1", "Potency": "inconclusive: 29.1 µM [falling, single point]"}, {"compound": "O=S(=O)(NCc1ccccc1)c1ccc(Br)s1", "Potency": "inconclusive: 20.6 µM [activator, single point]"}, {"compound": "Cc1ccc(-c2cc(C(=O)N(Cc3ccccc3)Cc3ccco3)no2)cc1F", "Potency": "inactive"}, {"compound": "CCC(COC)Oc1cc(NCc2ccccc2)c2ncn(C(C)C)c2c1", "note": "(stereo unspecified)", "Potency": "inconclusive: 20.6 µM [falling, single point]"}, {"compound": "Cc1ccccc1-c1ccc(C(=O)NCc2ccccc2)o1", "Potency": "inactive"}, {"compound": "C[C@H](CO)N1C[C@H](C)[C@@H](CN(C)C(=O)Nc2ccc(C(F)(F)F)cc2)Oc2c(NC(=O)Nc3ccc(C(F)(F)F)cc3)cccc2C1=O", "Potency": "inconclusive: 25.9 µM [falling, single point]"}, {"compound": "CCn1c(SCC(=O)N/N=C/c2c[nH]c3ccccc23)nnc1-c1ccc(C(C)(C)C)cc1", "Potency": "inconclusive: 29.1 µM [falling, single point]"}, {"compound": "O=C(COc1ccc(S(=O)(=O)NC2CCCCC2)cc1)N1CCN(c2ccc(F)cc2)CC1", "Potency": "inactive"}, {"compound": "O=c1nc2c(O)cccn2c2c1c(=O)[nH]c1ccccc12", "Potency": "inactive"}, {"compound": "Nc1ccc(Cl)cc1C(=O)OCC(=O)NC1CCS(=O)(=O)C1", "note": "(stereo unspecified)", "Potency": "inconclusive: 4.61 µM [activator, partial curve, poor fit]"}, {"compound": "CCCCCCCCCCCCCCCC[n+]1ccccc1", "Potency": "inconclusive: 23.1 µM [falling, partial curve, poor fit]"}, {"compound": "Oc1ccccc1-c1nc(NCc2cccnc2)c2ccccc2n1", "Potency": "inconclusive: 16.4 µM [falling, partial curve]"}, {"compound": "O=C1OC(c2ccccc2)=C/C1=C/N1CCOCC1", "Potency": "inactive"}, {"compound": "C#Cc1ccc(CN2CCC(C(=O)Nc3ccc(Oc4ccccc4)nc3)CC2)cc1", "Potency": "inconclusive: 32.6 µM [falling, partial curve, poor fit]"}, {"compound": "COc1ccc(C(=O)NCC(c2ccc(N(C)C)cc2)N2CCc3ccccc32)cc1OC", "note": "(stereo unspecified)", "Potency": "inactive"}, {"compound": "O=C(NCCCN1CCCCCC1)c1ccc2c(c1)NC(=O)C(N1CCOCC1)S2", "note": "(stereo unspecified)", "Potency": "inconclusive: 18.4 µM [activator, single point]"}, {"compound": "Cc1c(C(=O)C(=O)N2CCCc3ccccc32)c2ccccc2n1C", "Potency": "inconclusive: 29.1 µM [falling, partial curve, poor fit]"}, {"compound": "C=CCc1ccccc1OCCSc1nc2ccc([N+](=O)[O-])cc2s1", "Potency": "inconclusive: 14.6 µM [activator, partial curve, poor fit]"}, {"compound": "CN(C)S(=O)(=O)c1cc(NC(=O)CSc2ncc(C(F)(F)F)cc2Cl)ccc1Cl", "Potency": "inconclusive: 23.1 µM [falling, single point]"}, {"compound": "O=C1C[C@H](c2ccccc2Cl)N1S(=O)(=O)c1ccccc1[N+](=O)[O-]", "Potency": "inactive"}, {"compound": "Cc1ccc(C)c(N2CCN(C(=O)CSCc3ccccc3Cl)CC2)c1", "Potency": "inactive"}, {"compound": "Cc1ccc(OCCOCCN2CCCC2)c(Br)c1", "Potency": "inconclusive: 7.31 µM [activator, partial curve, poor fit]"}, {"compound": "CCn1c2ccccc2c2nnc(SCCCn3c(=O)[nH]c4ccccc43)nc21", "activity change, negative = cytotoxicity": "inactive: -0.189% [at 1.84 µM]"}, {"compound": "O=C(CC(O)c1ccccc1)Nc1ccccn1", "note": "(stereo unspecified)", "Potency": "inactive"}, {"compound": "CCS(=O)(=O)N1CC(=O)N(c2ccc(Cl)cc2)C(C)(C(=O)NC2CCCCC2)C1", "note": "(stereo unspecified)", "Potency": "inactive"}, {"compound": "COc1ccc(/C=C/C(=O)Nc2nc(-c3cccs3)ns2)cc1OC", "Potency": "inactive"}, {"compound": "C[C@@H]1CN([C@H](C)CO)C(=O)c2cc(NS(=O)(=O)c3ccc(F)cc3)ccc2O[C@@H]1CN(C)Cc1ccc(Cl)c(Cl)c1", "Potency": "active: 14.6 µM"}, {"compound": "CCOc1cc(/C=C\\[N+](=O)[O-])ccc1OCC(=O)Nc1ccccc1C", "Potency": "inconclusive: 29.1 µM [falling, single point]"}, {"compound": "CN1C(=O)C(N=Nc2ccc([N+](=O)[O-])cc2)SC1=S", "note": "(stereo unspecified)", "Potency": "inconclusive: 20.6 µM [falling, single point]"}, {"compound": "COc1cccc(-c2nc(SCC(=O)NC3CCCC3)c(-c3ccc(C)cc3)[nH]2)c1", "Potency": "inconclusive: 18.4 µM [falling, single point]"}, {"compound": "COCCCNC(=S)N1CCCN(c2nc3cc(C)ccc3cc2C#N)CC1", "Potency": "inactive"}, {"compound": "O=c1c2cc(N3CCOCC3)ccc2[nH]c(=S)n1Cc1cccc(Cl)c1", "Potency": "inconclusive: 29.1 µM [falling, single point]"}, {"compound": "CC(C)COc1ccc(C(=O)Nc2cc(-c3ccccc3)no2)cc1", "Potency": "inactive"}, {"compound": "Cc1cc(-c2ccccc2)c2nncn2n1", "Potency": "inactive"}, {"compound": "CCCCN1C(=O)C(O)(CC(=O)c2ccc(C)cc2C)c2cc(Br)ccc21", "note": "(stereo unspecified)", "Potency": "inconclusive: 18.4 µM [falling, single point]"}, {"compound": "CCOc1ccccc1Nc1cc(C)nc2ccc(C)cc12", "Potency": "inconclusive: 23.1 µM [falling, partial curve, poor fit]"}, {"compound": "CN1\\C(=C/C=C/C=C/C=[N+](C)C)C(C)(C)c2ccccc21", "Potency": "inconclusive: 14.6 µM [falling, partial curve]"}, {"compound": "CCCn1c(=O)c2c(nc3n2CCCN3Cc2ccccc2)n(C)c1=O", "Potency": "inconclusive: 25.9 µM [falling, partial curve, poor fit]"}, {"compound": "Cc1cc(C)cc(-n2nnnc2SCC(=O)Nc2nc(-c3ccc(Cl)cc3)cs2)c1", "Potency": "inconclusive: 18.4 µM [falling, partial curve]"}, {"compound": "COc1cc2ccccc2cc1C(=O)N1CCc2ccccc21", "Potency": "inconclusive: 20.6 µM [falling, partial curve, poor fit]"}, {"compound": "CCCCS(=O)(=O)c1oc(-c2ccc(F)cc2)nc1S(=O)(=O)c1ccc(C)cc1", "Potency": "inconclusive: 18.4 µM [falling, single point]"}, {"compound": "Cc1ccc2nc3c(cc(C(=O)NCC4CCCO4)c(=N)n3CCCOC(C)C)c(=O)n2c1", "note": "(stereo unspecified)", "Potency": "inconclusive: 4.61 µM [activator, partial curve]"}, {"compound": "COc1ccc(C(=O)Nc2nc(-c3nnn(-c4ccc(C(C)C)cc4)c3C)ns2)cc1", "Potency": "inactive"}, {"compound": "CCN(CC)c1ccc(CNc2nc3ccccc3n2C(C)C)cc1", "Potency": "inconclusive: 18.4 µM [falling, single point]"}, {"compound": "Cc1ccc(C)c(N2CCN(C(=O)CCCOc3cc(=O)n(C)c4ccccc34)CC2)c1", "Potency": "inconclusive: 29.1 µM [falling, single point]"}, {"compound": "COc1ccc(C(=O)Nc2ccccc2C(=O)NCc2cccnc2)cc1OC", "Potency": "inconclusive: 16.4 µM [activator, single point]"}, {"compound": "COc1ccc(F)cc1S(=O)(=O)Nc1cccc(-c2ccc(N3CCC(C)CC3)nn2)c1", "Potency": "inconclusive: 20.6 µM [falling, single point]"}, {"compound": "O=C(COc1ccc(Br)cc1)NCCN1CCCC1", "Potency": "inconclusive: 20.6 µM [activator, partial curve, poor fit]"}, {"compound": "COc1cccc2c1OCC(C(=O)NCc1ccc(Cl)cc1Cl)=C2", "Potency": "inconclusive: 0.58 µM [activator, partial curve, poor fit]"}, {"compound": "Cc1ccc2oc(=O)c3cnn(CC(=O)Nc4ccccc4N4CCN(C)CC4)c3c2c1", "Potency": "inconclusive: 14.6 µM [falling, partial curve]"}, {"compound": "CC(C)(C)c1ccc(N/N=C(\\C#N)S(=O)(=O)C(C)(C)C)cc1", "Potency": "inconclusive: 23.1 µM [falling, single point]"}, {"compound": "Cc1cc(NCCCCCCCNc2cc(C)nc3cc([N+](=O)[O-])ccc23)c2ccc([N+](=O)[O-])cc2n1", "Potency": "inactive"}, {"compound": "Cc1ccc(-c2nc(CN(C)Cc3ccc4nccnc4c3)c(C)o2)s1", "Potency": "inactive"}, {"compound": "CC(CNc1ccc([N+](=O)[O-])c2cccnc12)Nc1c([N+](=O)[O-])cc(C(F)(F)F)cc1[N+](=O)[O-]", "note": "(stereo unspecified)", "Potency": "inconclusive: 11.6 µM [falling, partial curve, poor fit]"}, {"compound": "COc1ccc(-c2nc3ccccn3c2CN2CCN(c3ccccc3F)CC2)cc1", "Potency": "inconclusive: 32.6 µM [falling, single point]"}, {"compound": "CC(C)COc1ccc(C(=O)Nc2sc3c(c2C(=O)O)CC(C)(C)OC3)cc1", "Potency": "inconclusive: 8.2 µM [falling, partial curve, poor fit]"}]}]}
